One compound from patent publication US6593373B2, “Pharmaceutical compositions of O-desmethyl-N-mono-desmethyl-tramadol” (Gruenenthal GmbH, priority 2000, dated 2003) can be followed below.

Protein sequences, listed by entry. Tags and fused reporters are not part of them.
UniProt P33535, whole entry: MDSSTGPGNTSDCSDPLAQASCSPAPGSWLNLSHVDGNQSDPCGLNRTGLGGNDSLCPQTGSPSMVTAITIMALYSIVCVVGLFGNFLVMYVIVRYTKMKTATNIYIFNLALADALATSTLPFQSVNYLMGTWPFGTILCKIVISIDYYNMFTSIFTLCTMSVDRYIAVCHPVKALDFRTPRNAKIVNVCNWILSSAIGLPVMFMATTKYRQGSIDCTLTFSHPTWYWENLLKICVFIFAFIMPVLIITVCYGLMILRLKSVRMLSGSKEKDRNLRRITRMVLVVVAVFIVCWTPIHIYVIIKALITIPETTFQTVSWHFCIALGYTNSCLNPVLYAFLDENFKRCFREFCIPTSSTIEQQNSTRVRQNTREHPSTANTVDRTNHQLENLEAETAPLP

One may read the IC50 as the concentration that inhibits the measured activity by half.

Assay [1] has as its system neuronal uptake of norepinephrine (NE). The experiment in a line: Noradrenaline uptake inhibition, in vitro rat brain. It counts as biochemical. The conditions noted are these: read-out: Noradrenalin uptake IC50. An excerpt: The inhibition of neuronal uptake of monoamines (norepinephrine; NE) was investigated in in vitro rat brain binding experiments.
A further assay deals with T1, μ-opioid receptor (Rattus norvegicus, UniProt P33535).
T1 construct: from tissue; host or cells: rat brain
Description: μ-opioid (Naloxon) binding, in vitro rat brain. The text has this:
The μ-opioid receptor binding was investigated in in vitro rat brain binding experiments using naloxone.

With `COc1cccc([C@@]2(O)CCCC[C@@H]2CN(C)C)c1` (racemic) [Tramadol, (1RS, 2RS)-2[(dimethylamino)methyl]-1-(3-methoxyphenyl)-cyclohexanol], the 50% inhibitory concentration (IC50) in assay [1] was found to be 2.8 µM; at μ-opioid receptor, 19.1 µM.
